Here are results for one compound from US20150011423A1, “MEANS AND METHODS FOR ASSESSING KIDNEY TOXICITY” (BASF SE, priority 2011, published 2015).

Molecules are shown by their SMILES. Like-named read-outs stand apart in the source and are kept apart here. Marks after values point to notes of the source that are not given here.

Data set [1] deals with rats. The data set can be described thus: 28-day repeated dose study in rats with mass spectrometry-based plasma metabolite profiling (GC-MS, LC-MS, SPE-LC-MS); treatment ratios versus control. The following applies: for 16-Methylheptadecanoic acid, treatment ratio versus control / Linolenic acid (C18:cis[9,12,15]3), treatment ratio versus control: Table 3d tubular defect.
The subject of data set [2] is rats. The following applies: rat, in vivo.
[3] abbreviates: female rats, day 14, high dose, Table 3b tubular defect.
The mark [4] stands for this setting: female rats, day 28, high dose, Table 3b tubular defect.
[5] abbreviates: male rats, day 14, high dose, Table 3c tubular defect.

With `NS(=O)(=O)c1cc(C(=O)O)c(NCc2ccco2)cc1Cl` [Furosemide], in the data set with rats [1] (setting [3]), the “Hippuric acid, treatment ratio versus control” value is 0.55^; the “Indole-3-acetic acid, treatment ratio versus control” value is 0.4 *; the “Spermidine, treatment ratio versus control” value is reported as 0.77 *. In the data set on rats [1] (female rats, day 28, high dose, Table 1b diuretic effect), the “Hippuric acid, treatment ratio versus control” value was 0.47 *. The “Phosphatidylcholine No 02, treatment ratio versus control” value in the data set with rats [1] (female rats, day 28, high dose, Table 3a tubular defect) was 0.98^. Further, in the data set on rats [1] (setting [4]), the “Hippuric acid, treatment ratio versus control” value is recorded as 0.47 *; the “Indole-3-acetic acid, treatment ratio versus control” value is 0.7 *; the “Spermidine, treatment ratio versus control” value is listed as 0.75. In the data set on rats [1] (setting [5]), the “Nervonic acid (C24:cis[15]1), treatment ratio versus control” value was 2.97 * and the “Pantothenic acid, treatment ratio versus control” value was 1.19 *. For the same compound, in the data set with rats [1] (male rats, day 14, high dose), the “16-Methylheptadecanoic acid, treatment ratio versus control” value was 0.61 * and the “Linolenic acid (C18:cis[9,12,15]3), treatment ratio versus control” value was found to be 0.85. The “Kynurenic acid, treatment ratio versus control” value in the data set on rats [1] (male rats, day 28, high dose, Table 3c tubular defect) is recorded as 1.44. Further, in the data set on rats [1] (male rats, day 28, high dose), the “16-Methylheptadecanoic acid, treatment ratio versus control” value was 0.72 * and the “Linolenic acid (C18:cis[9,12,15]3), treatment ratio versus control” value is 0.68 *. Further, in the data set with rats [2], the “Kynurenic acid, treatment ratio versus control” value is 2.01 * and the “Nervonic acid (C24:cis[15]1), treatment ratio versus control” value is listed as 1.46 *.
